Experimental data: paper PMC8885739
No constants are given. Whether binding was seen depends on the method and setting. In cells and extracts the contact can be indirect. A yes stands for co-enrichment or nearness to the bait. Other partners may have been found.

Amino acid sequences for entries named in this document (tags omitted). A change or cut given only in a name is not applied to a line headed by its entry.
UniProt Q8C5Y2: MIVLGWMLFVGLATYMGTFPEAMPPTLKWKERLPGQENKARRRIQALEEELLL

B1: glycerol kinase 2 (GK2), endogenous in mouse testis (protein, UniProt Q9WU65 1-554)
chain: MAASKQTSAGPLVGAVVQGTNSTRFLVFNSKTAELVCSHQVELTQEYPKEGWVEQDPKEILKSVYECIAKACEKLAEVNIDISNIKAIGVSNQRETTVVWDKFTGDPLYNAVVWLDLRTQSTVETLTKKIPGNSNFVKSKTGLPLSTYFSAVKLRWMLDNLRPIQKAVEEGRAMFGTIDSWLIWCMTGGVNGGIHCTDVTNACRTMLFNIHSLEWDKDLCDFFEIPMSILPNVCSSSEIYGLMTSGALEGVPISGCLGDQSAALVGQMCFHEGQAKNTYGTGCFLLCNTGQKCVFSEHGLLTTLAYKLGKNKPVFYALEGSVAIAGAVIRWLRDNFEIITTSGEVENLAREVGTSYGCYFVPAFSGLYAPYWEPSARGIICGLTQFTNKCHIAFAALEAVCFQTREILDAMNRDCGIPLSHLQVDGGMTNNRILMQLQADILHIPVVKSVMPETTALGAAMAAGAAEGVNVWSLEPEDLSTILMERYEPQIQATESEIRFSTWKRAVMKSMGWVTAKDPENGDNPVFSCLPLGFFIVSSMTLLIGARCVSTAEE
B2: armadillo repeat-containing 12 (ARMC12), endogenous in mouse testis (protein, UniProt Q80X86 1-340)
chain: MGKTIPRFLEQLDLIKSFVGLATGAGALYLLYKAVRTGLKCHPPLCSNSPICIARLAIERERHGRDSGEIRRLLNSLDCKQDEYTRSMILHNITRCVYLLEAEASSCTMDDIDLVADMLDEKDNSVKIQALNALKAFSGIRKFRLKIQEHCIKVLELISTIWDLELHVAGLRLLNNLPLPDYVHPQLRRVMPALMEIIQSDCILAQVQAVRLLSYLAQKNDLLYDILNCQVRPNFLNLFQSSQPGSLLFEVLVFAEHLSEGRNATHYRAVKWHYNEQSLHEALFGDESRLADRLLSLVIHPEEEVQIQACKVIVSLQCPQDLGSRPSSCRPSHSCFKTGK
B3: TBC1 domain family member 21 (TBC1D21), endogenous in mouse testis (protein, UniProt Q9D9D3 1-336)
chain: MTTLSPENSLSARRSATFILEKRNPPIDKAEWDSFFDENGHLAKSRDFICINILERGLHPFVRTEAWKFLTGYYSWQSSRDERLMVDSNRRRNYNSLCQMYEKIQPLLENLHGNFTETRNNIAYDIQRLYDKDPLGNVLIDKKKLEKTLLLSYVCNTKAEYQRGFHEMVMLFQLMVEHDHETFWLFQFFLQKTEHSCVINIGVGKNLDMLNSLITLLDPEFAEHLKGKGSGAVQSLFPWFCLCFQRAFKTFDDVWRLWEVLLTGKPCRNFQVLVAYSMLQMVREQALLECMSGDAILMACNNLIDLDADELISAACVVYSELMQKEVPQPLKEFLL

These binders were tested against Polluks with a COOH-terminal FLAG tag, from Polluks^FLAG/+ knock-in mice (mouse (endogenous in testis)) (assay: affinity purification with mass spectrometry; lysates of testis of Kastor^FLAG/+ or Polluks^FLAG/+ mice (50 mM Tris-HCl pH 7.5, 150 mM NaCl, 1% Triton X-100); anti-FLAG M2 affinity gel, 90 min at 4 °C; eluted with FLAG peptide; SDS-PAGE, silver staining, in-gel digestion, LC-MS/MS).

binding, binds:
B1, B2, B3

What follows are binders tested against Kastor with a COOH-terminal FLAG tag, from Kastor^FLAG/+ knock-in mice (mouse (endogenous in testis)) (UniProt Q8C5Y2) in the same assay as above.

binding, binds:
B1, B2, B3
